The nature of this series: general procedure: Boc solid-phase peptide synthesis; oxime resin (4-BMA precursor); BOC-amino acid symmetric anhydrides formed with diisopropylcarbodiimide. The settings on record: whole synthesis.

Strings that start with PEPTIDE1 are HELM notation: dots part the residues, brackets hold end groups and non-standard residues.

As to “Boc-L-Tyrosyl(t-Butylether)-L-Prolyl-L-Phenylalanyl-p-Benzoyl-L-phenylalanine Amide”, the difficulty met result is recorded as “the deletion dipeptide BOC-Tyr(t-Bu)-Bpa-NH2”. Consider “PEPTIDE1{L.K.[Bpa].K.K.L.L.K.L.L.K.K.L.L.K.L.G}$$$$V2.0”, for which the isolated yield (overall, based on the loading of the first amino acid on the resin) is reported as 19%.

For the origin of these results see patent publication US4762881 (dated 1988).
